The values below come from PMC7431425.

The chains behind the UniProt entries cited, without tags or fusion partners. Where a name states a change or a piece, a line headed by the entry shows the natural chain unless it says otherwise.
UniProt P18824: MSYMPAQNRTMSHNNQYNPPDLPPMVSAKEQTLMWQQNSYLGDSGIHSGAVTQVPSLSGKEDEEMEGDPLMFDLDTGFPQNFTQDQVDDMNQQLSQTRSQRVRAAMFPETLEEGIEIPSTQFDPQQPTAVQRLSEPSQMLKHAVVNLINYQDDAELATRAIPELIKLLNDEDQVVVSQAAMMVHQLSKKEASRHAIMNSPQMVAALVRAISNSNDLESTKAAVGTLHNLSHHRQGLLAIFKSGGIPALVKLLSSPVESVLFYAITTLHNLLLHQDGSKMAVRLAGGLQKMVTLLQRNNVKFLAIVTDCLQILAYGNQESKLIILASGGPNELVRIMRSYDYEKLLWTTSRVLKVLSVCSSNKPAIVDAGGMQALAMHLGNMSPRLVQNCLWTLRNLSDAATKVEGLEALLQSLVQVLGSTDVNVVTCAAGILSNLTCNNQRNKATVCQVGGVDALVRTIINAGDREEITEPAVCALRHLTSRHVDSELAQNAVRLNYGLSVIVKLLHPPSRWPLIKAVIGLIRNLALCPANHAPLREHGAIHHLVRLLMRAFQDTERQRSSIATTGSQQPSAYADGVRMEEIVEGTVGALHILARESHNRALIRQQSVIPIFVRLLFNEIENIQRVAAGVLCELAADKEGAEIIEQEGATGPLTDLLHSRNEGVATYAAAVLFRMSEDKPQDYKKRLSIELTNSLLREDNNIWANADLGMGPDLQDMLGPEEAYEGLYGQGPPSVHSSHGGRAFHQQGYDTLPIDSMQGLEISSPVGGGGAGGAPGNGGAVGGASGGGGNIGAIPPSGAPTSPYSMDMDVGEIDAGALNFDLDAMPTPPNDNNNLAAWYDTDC

These are yes or no findings as the source states them, for the method shown. In cells and extracts the contact can be indirect. Where a sequence is shown, tags or fusion partners need not be part of it.

The target of the test is T1, GST-Klp64D^tail (Drosophila) (UniProt Q9VRK9).
T1 sequence: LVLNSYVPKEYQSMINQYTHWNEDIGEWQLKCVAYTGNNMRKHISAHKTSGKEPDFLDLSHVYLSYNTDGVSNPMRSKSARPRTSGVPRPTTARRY
The experiment in a line: pull-down; GST fusion protein on blocked glutathione Sepharose 4B beads incubated with lysates containing MBP-fusion proteins O/N at 4 °C; washes in 20 mM Tris pH 7.5, 150 mM NaCl, 0.5 mM EDTA, 10% glycerol, 0.1% Triton X 100, 1 mM DTT; Western blot with anti-GST or anti-MBP; only the target ….

On to Arm^ΔAR2 (from UniProt P18824), for which the binding result is recorded as “no binding”.
